Measurements as given in patent US20180030093A1 (Agency for Science, Technology and Research, priority 2015, published 2018).
“Also recorded” adds a separate entry of the source. Non-standard residues stand in square brackets, D forms with d. Residues, ends and D or L forms follow the SMILES beside them.

Key:
[1] = FESEM morphological characterization of hydrogel scaffolds; conditions: freeze-dried hydrogel scaffold
[2] = peptide synthesis; conditions: cyclisation step

In the case of `CC[C@H](C)[C@@H]1NC(=O)[C@@H](CC(C)C)NC(=O)[C@H](CO)NC(=O)CNC(=O)[C@H](C)NC(=O)[C@@H](C(C)C)NC1=O` [cLS6, cLIVAGS] (cyclo([dL]I[dV]AGS)), the “morphology by FESEM” value [1] is reported as “fibrillization of cLS6 is clearly visible; also recorded: confirmed a fibre structure”.
With “cyclo([dL]I[dV]AGS) (SMILES CC[C@H](C)[C@@H]1NC(=O)[C@@H](CC(C)C)NC(=O)[C@H](CO)NC(=O)CNC(=O)[C@H](C)NC(=O)[C@@H](C(C)C)NC1=O)” the difficulty met [2] was “Since solution was cyclization resulted in low yield”.
